Experimental data taken from article PMC7925690, “A molecular switch in sulfur metabolism to reduce arsenic and enrich selenium in rice grain” (Nature Communications, 2021).
No constants are given. Whether binding was seen depends on the method and setting. Binding seen in cells or lysates may run through a third protein. A result given as binding can be weak or reduced; the word gives no strength. Sequences can lack the tags named with a protein.

Target: T1, His-AtSAT5 (Arabidopsis thaliana) (UniProt Q42538)
T1 sequence: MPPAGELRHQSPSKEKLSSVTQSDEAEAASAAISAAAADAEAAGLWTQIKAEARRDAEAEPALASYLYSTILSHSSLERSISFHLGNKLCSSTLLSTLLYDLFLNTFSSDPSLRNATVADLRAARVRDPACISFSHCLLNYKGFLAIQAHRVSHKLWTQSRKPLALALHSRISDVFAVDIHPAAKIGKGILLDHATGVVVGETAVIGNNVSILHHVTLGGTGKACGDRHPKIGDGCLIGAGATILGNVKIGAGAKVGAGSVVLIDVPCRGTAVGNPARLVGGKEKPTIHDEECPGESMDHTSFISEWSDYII
Experiment: pull-down; His-AtSAT5 held on a NiCl2 HiTrap Chelating column, washed with Buffer W (50 mM Tris-HCl pH 8.0, 250 mM NaCl, 80 mM imidazol) and with 10 mM OAS; crude extract of untagged OAS-TL loaded; elution with Buffer W + 10 mM OAS, then 400 mM imidazol; SDS-PAGE, Coomassie; only the target …

binding: binds
Substance: mature OsASTOL1^S189N protein (untagged) (rice (Oryza sativa cv. Kasalath)) (enzyme)
